Assay results published in patent publication US20210347914A1.
Where a chain is given by its changes, count along the chain named. These are yes or no findings as the source states them, for the method shown. Some entries that bind do so weakly or less than the wild type. One block for each binder: values may come before it.

Chains of the proteins cited; added tags and fusions are not shown. Lines headed by an entry give the natural chain unless they say otherwise; changes in a name come on top.
UniProt P09936: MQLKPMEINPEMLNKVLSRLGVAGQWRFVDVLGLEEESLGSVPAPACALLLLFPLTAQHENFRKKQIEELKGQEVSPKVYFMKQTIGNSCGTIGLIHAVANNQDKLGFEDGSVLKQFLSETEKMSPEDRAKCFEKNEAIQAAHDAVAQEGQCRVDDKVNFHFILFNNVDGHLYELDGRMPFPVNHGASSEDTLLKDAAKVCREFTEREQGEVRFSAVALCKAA

Tests used:
[1] = molecular target: recombinant human UCH-L1 (human) (UniProt P09936); test: hybridoma screen, indirect and sandwich ELISA (recombinant or CSF UCH-L1)
[2] = molecular target: recombinant human UCH-L1 (human) (UniProt P09936); test: hybridoma screen, western blot and indirect ELISA with recombinant UCH-L1

- binding [1]: binds
B2: UCH-L1-1 (antibody, V domains shown)
VH: QVQLQQPGSELVRPGASVKLSCKASGYTFTSYWMHWVKQRPGQGLEWIGNIYPGSGSTNYDEKFKSKATLTVDTSSSTAYMQLSSLTSEDSAVYYCTREDYWGQGTTLTVSS
VL: DVLMTQTPLSLPVSLGDQASISCRSSQNIVHSNGNTYLEWYLQKPGQSPKLLIYKVSNRFSGVPDRFSGSGSGTDFTLKISRVEAEDLGVYYCFQGSHVPFTFGSGTKLEIK

- binding [1]: binds
B8: UCH-L1-8 (antibody, V domains shown)
VH: EVQLQQSGPDLVKPGTSVKISCKTSGYTFTEYTMHWVKQSHGRSLEWIGGLNPNNGRTSYNQKFKGKATLTVDKSSSIAYMELRSLTSEDSAVYYCARRLGRGFYFDYWGQGTTLTVSS
VL: DIVLTQSPASLAVSLGQRATISCRASESVDSYGNNLMHWYQQKPGQSPKLLIYRASNLESGIPGRFSGRGSRTDFTLTINPVEADDVATYYCQQSNGDPYTFGGGTKLEIK

- binding [1]: binds
B9: UCH-L1-6 (antibody, V domains shown)
VH: B8 VH with D10E, T16A, R43K, E46D, L51I, I78T, E82D, L83F
VL: B8 VL with D30E, M37I, P44L, S47P, R54L, A55S, S60P, G64A, K111R

- binding [1]: binds
B10: UCH-L1-4 (antibody, V domains shown)
VH: AVQLQQSGPELVKPGASVKISCKTSGDTFTEHFMNWVKQSHGESLEWIGIINPYTDGTNYDQKFKDKATLTVDKSSSTAYMELRSLTSEDSAVYYCARWGGDGEGYWGQGTTLTVSS
VL: DIVMTQAAPSVSVTPGESVSISCRSSKSLLHSNGNTYLYWFLKRPGQSPQLLIYRMSNLASGVPDRVSGSGSGTAFTLRISRVEAEDVGIYYCMQHLEYPLTFGAGTKLELK

- binding [1]: binds
B13: UCH-L1-12 (antibody, V domains shown)
VH: EVQLVESGGGLVKPGGSLKLSCAASGFTFSKNAMSWVRQTPEKRLEWVATISTGGTYTYYPDSVKGQFTISRDNAKNTLYLQMSSLRSEDTAMYFCARQRTGTYAMDHWGQGTSVTVSS
VL: DIQMTQSPASLSASVGETVTITCRASGNIHNYLAWYQQKQGKSPQLLVYNANTLADGVPPRFSGSGSGTQYSLKVNSLQPEDFGNYYCQHFWSTTWTFGGGTRLEIK

Continued, binder first:

B1: UCH-L1-2 (antibody, V domains shown)
VH: EVMLVESGGGLVKPGGSLKLSCAASGFIFSSHAMSWIRQIPEKRLEWVATISSGGSNTYYPDSVKGRFTISRDNAKNILYLQMSSLRSEDTAIYYCTRHGEVRRGYYFDYWGQGTTLTVSS
VL: DIQMTQTPSSLSASLGDRVTISCSASQGITNYLNWYQQKPDGTVKLLIYYTSSLHSGVPSRFSGSGSGTDYSLTISNLEPEDFATYYCQHYSNLPWTFGGGTKLEIK
- binding [1]: binds

B3: UCH-L1-13 (antibody, V domains shown)
VH: B2 VH with S57T, S84N
VL: B2 VL with T7S, F101Y, S105G
- binding [2]: binds

B4: UCH-L1-3 (antibody, V domains shown)
VH: B2 VH with K23R, M34I, P41H, S57I, S66T, A68G, A79V, Q82H, S84I
VL: B2 VL with N28S, R82G, A85T, S105G
- binding [1]: binds

B5: UCH-L1-10 (antibody, V domains shown)
VH: B8 VH with L51F, I78T, A97S, G101Y
VL: B8 VL with T76S
- binding [1]: binds

B6: UCH-L1-7 (antibody, V domains shown)
VH: B8 VH with D10E, T16A, R43K, E46D, L51I, I78T
VL: B8 VL with S47P, R54L, A55S, G64A
- binding [1]: binds

B7: UCH-L1-9 (antibody, V domains shown)
VH: B8 VH with D10E, T16A, R43K, E46D, L51I, I78T, A92T
VL: B8 VL with L36F, S47P, R54L, A55S, G64A, I110M
- binding [1]: binds

B11: UCH-L1-5 (antibody, V domains shown)
VH: EVKLVESGGGSVQPGGSLSLSCAASGFTFTEYYMSWVRQFPGKALEWLAFIRNRAHGYTTEYSASVKGRFTISRDNSQSILYLQMNALRTEDSATYYCASSYGAPFAYWGQGTLVSVSA
VL: B10 VL with S12P, N33D, K43Q, V67F, I90V
- binding [1]: binds

B12: UCH-L1-11 (antibody, V domains shown)
VH: B13 VH with K31R, N32Y, G54A, T56S, Q67R, M93L, F95Y, R100G, H108Y
VL: B13 VL with K39N, N52K, P60S, V75I, S77R, N85S, R103K
- binding [1]: binds
